# Measured values reported in patent publication US20090022803A1, “Oral Formulations For Delivery of Catecholic Butanes Including Ndga Compounds” (priority 2005, published 2009).
# Like-named read-outs stand apart in the source and are kept apart here. This continues a long series; more values of the same kind are listed elsewhere.
# Assay type: physicochemical
# Experimental: A 10 mL solution of M4N at a concentration of about 10 mg/mL in 40% BP-β-CD was made as follows. About 10 mL of the 40% HP-β-CD solution were added to a glass beaker containing a stir bar. The beaker was placed on a magnetic plate and the stir bar was set to stir at medium speed. About […] of M4N were slowly added to the 40% HP-β-CD in the center of the beaker with the aid of a spatula. The M4N/40% HP-β-CD mixture was stirred for 2 hr or until all M4N was uniformly suspended without any clumps being present. The M4N/40% HP-β-CD mixture was optionally heated at 80° C. for about 30 min. (or longer if a larger volume of solution was desired, for example, 1 hr at 80° C. for 100 mL of the M4N/HP-β-CD mixture), or longer as needed to ensure complete dissolution of M4N. […] The final M4N/40% HP-β-CD solution was stored at room temperature and was kept protected from light. This process may be scaled up or down to obtain the requisite volume or concentration of M4N. Formulations containing M4N in other cyclodextrin solutions may be similarly made, such as, for example, by substituting HP-β-CD in the process described above with other cyclodextrins. […]
# A 10 mL solution of M4N at a concentration of about 10 mg/mL in 50% HP-β-CD/0.5% HPMC was made as follows. About 10 mL of the 50% HP-β-CD/0.5% HPMC solution were added to a glass beaker containing a stir bar. The beaker was placed on a magnetic plate and the stir bar was set to stir at medium speed. About 100 mg of M4N were slowly added to the 50% HP-β-CD/0.5% HPMC in the center of the beaker with the aid of a spatula. The M4N/50% HP-β-CD/0.5% HPMC mixture was stirred for 24 hr or until all M4N was uniformly suspended without any clumps being present. The M4N/50% HP-β-CD/0.5% HPMC mixture was heated at about 90° C. for about 30 min. (or longer if a larger volume of solution was desired, for example, 1 hr at 90° C. for 500 mL of the M4N/50% HP-β-CD/0.5% HPMC mixture), or longer as needed to ensure complete dissolution of M4N. […] The final M4N/50% HP-β-CD/0.5% HPMC solution was stored at room temperature and was kept protected from light.
# A 10 mL solution of M4N at a concentration of about 20 mg/mL in 5% EC (w/v) (the “EC formulation”) was made as follows. About 10 mL of 5% EC formulation, made as described above, were added to a glass beaker containing a stir bar. The beaker was placed on a magnetic plate and the stir bar was set to stir at medium speed, and covered with a round Teflon® cover. About 200 mg of M4N were slowly added to the 5% EC formulation in the center of the beaker with the aid of a spatula to prevent M4N from sticking to the beaker wall. The M4N/EC mixture was stirred for 2 hr or until all M4N had dissolved or was uniformly suspended without any clumps being present. The M4N/EC mixture was heated at about 60° C. for about 30 min. (or longer if a larger volume of solution was desired, for example, 1 hr at 60° C. for 500 mL of the M4N/EC mixture), or longer as needed to ensure complete dissolution of M4N. […] The final M4N/EC solution was stored at room temperature and was kept protected from light.
# A 10 mL solution of M4N at a concentration of about 50 mg/mL in sesame oil was made as follows. About 10 mL of sesame oil were added to a glass beaker containing a stir bar. The beaker was placed on a magnetic plate and the stir bar was set to stir at medium speed. About 500 mg of M4N were slowly added to the sesame oil in the center of the beaker with the aid of a spatula to prevent M4N from sticking to the beaker wall. The M4N/sesame oil mixture was stirred for about 2 hr or until all M4N had dissolved or was uniformly suspended without any clump being present. The M4N/sesame oil mixture was heated at about 60° C. for about 30 min. (or longer if a larger volume of solution was desired, for example, 1 hr at 60° C. for 500 mL of the M4N/sesame oil mixture), or longer as need to ensure complete dissolution of M4N. […]
# For Dissolution After Cool Down in this document: key: N represents 'No'; Y represents 'Yes.'.
smiles,measurement,setting,value
"COc1ccc(C[C@@H](C)[C@@H](C)Cc2ccc(OC)c(OC)c2)cc1OC [Formulation M4N, meso-1,4-bis(3,4-dimethoxyphenyl)-2,3-dimethylbutane]",concentration up to which M4N was soluble,,≤ 60000 µg/mL
same,solubility at room temperature,,soluble
same,solubility upon cooling,,insoluble
same,Dissolution After Rotation,"0.3% (v/v) Piperin, 49.8% (v/v) PEG 400, 49.8% (v/v) Tween ® 20, M4N 60 mg/mL",N
same,Dissolution After Cool Down,"0.3% (v/v) Piperin, 49.8% (v/v) PEG 400, 49.8% (v/v) Tween ® 20, M4N 60 mg/mL, after heating at 55° C.",Suspension
same,Dissolution After Heating,"0.3% (v/v) Piperin, 49.8% (v/v) PEG 400, 49.8% (v/v) Tween ® 20, M4N 60 mg/mL, heating at 55° C.",Y at 55 °C
same,Dissolution After Rotation,"0.3% (w/v) Naringenin, 49.8%(v/v) PEG 400 49.8% (v/v) Tween ® 20, M4N 60 mg/mL",N
same,Dissolution After Cool Down,"0.3% (w/v) Naringenin, 49.8%(v/v) PEG 400 49.8% (v/v) Tween ® 20, M4N 60 mg/mL, after heating at 50° C.",Creamy
same,Dissolution After Heating,"0.3% (w/v) Naringenin, 49.8%(v/v) PEG 400 49.8% (v/v) Tween ® 20, M4N 60 mg/mL, heating at 50° C.",Y at 50 °C
same,Dissolution After Rotation,"0.4% (v/v) Cinnamadehyde, 49.8%(v/v) PEG 400, 49.8% (v/v) Tween ® 20, M4N 60 mg/mL",N
same,Dissolution After Cool Down,"0.4% (v/v) Cinnamadehyde, 49.8%(v/v) PEG 400, 49.8% (v/v) Tween ® 20, M4N 60 mg/mL, after heating at 60° C.",Y
same,Dissolution After Heating,"0.4% (v/v) Cinnamadehyde, 49.8%(v/v) PEG 400, 49.8% (v/v) Tween ® 20, M4N 60 mg/mL, heating at 60° C.",Y at 60 °C
same,Dissolution After Rotation,"0.4% (v/v) Cinnamaldehyde, 4.6% (v/v) Peppermint Oil, 47.5% (v/v) PEG 400, 47.5% (v/v) Tween ® 20, M4N 60 mg/mL",N
same,Dissolution After Cool Down,"0.4% (v/v) Cinnamaldehyde, 4.6% (v/v) Peppermint Oil, 47.5% (v/v) PEG 400, 47.5% (v/v) Tween ® 20, M4N 60 mg/mL, after heating at 60° C.",Y
same,Dissolution After Heating,"0.4% (v/v) Cinnamaldehyde, 4.6% (v/v) Peppermint Oil, 47.5% (v/v) PEG 400, 47.5% (v/v) Tween ® 20, M4N 60 mg/mL, heating at 60° C.",Y at 60 °C
same,Dissolution After Rotation,"0.4% (v/v) Eugenol, 49.8% (v/v) Tween ® 20, 49.8% (v/v) PEG 400, M4N 60 mg/mL",N
same,Dissolution After Cool Down,"0.4% (v/v) Eugenol, 49.8% (v/v) Tween ® 20, 49.8% (v/v) PEG 400, M4N 60 mg/mL, after heating at 50° C.",Y
same,Dissolution After Heating,"0.4% (v/v) Eugenol, 49.8% (v/v) Tween ® 20, 49.8% (v/v) PEG 400, M4N 60 mg/mL, heating at 50° C.",Y at 50 °C
same,Dissolution After Rotation,"0.4% (v/v) Naringin, 49.8% (v/v) PEG 400, 49.8% (v/v) Tween ® 20, M4N 60 mg/mL",N
same,Dissolution After Cool Down,"0.4% (v/v) Naringin, 49.8% (v/v) PEG 400, 49.8% (v/v) Tween ® 20, M4N 60 mg/mL, after heating at 50° C.",Suspension
same,Dissolution After Heating,"0.4% (v/v) Naringin, 49.8% (v/v) PEG 400, 49.8% (v/v) Tween ® 20, M4N 60 mg/mL, heating at 50° C.",Y at 50 °C
same,Dissolution After Rotation,"0.4% (v/v) Naringin, 49.8% (v/v) PEG 400, 49.8% (v/v) Tween ® 20, M4N 120 mg/mL",N
same,Dissolution After Cool Down,"0.4% (v/v) Naringin, 49.8% (v/v) PEG 400, 49.8% (v/v) Tween ® 20, M4N 120 mg/mL, after heating at 50° C.",Suspension
same,Dissolution After Heating,"0.4% (v/v) Naringin, 49.8% (v/v) PEG 400, 49.8% (v/v) Tween ® 20, M4N 120 mg/mL, heating at 50° C.",Y at 50 °C
same,Dissolution After Rotation,"0.4% (v/v) Naringin, 49.8% (v/v) PEG 400, 49.8% (v/v) Tween ® 20, M4N 200 mg/mL",N
same,Dissolution After Cool Down,"0.4% (v/v) Naringin, 49.8% (v/v) PEG 400, 49.8% (v/v) Tween ® 20, M4N 200 mg/mL, after heating at 50° C.",Suspension
same,Dissolution After Heating,"0.4% (v/v) Naringin, 49.8% (v/v) PEG 400, 49.8% (v/v) Tween ® 20, M4N 200 mg/mL, heating at 50° C.",Y at 50 °C
same,Dissolution After Rotation,"0.4% (v/v) Naringin, 49.8% (v/v) PEG 400, 49.8% (v/v) Tween ® 20, M4N 300 mg/mL",N
same,Dissolution After Cool Down,"0.4% (v/v) Naringin, 49.8% (v/v) PEG 400, 49.8% (v/v) Tween ® 20, M4N 300 mg/mL, after heating at 50° C.",Suspension
same,Dissolution After Heating,"0.4% (v/v) Naringin, 49.8% (v/v) PEG 400, 49.8% (v/v) Tween ® 20, M4N 300 mg/mL, heating at 50° C.",Y at 50 °C
same,Dissolution After Rotation,"3% (w/v)Glycerol Monostearate, 48.5% (v/v) PEG 400, 48.5% (v/v) Tween ® 20, M4N 60 mg/mL",N
same,Dissolution After Cool Down,"3% (w/v)Glycerol Monostearate, 48.5% (v/v) PEG 400, 48.5% (v/v) Tween ® 20, M4N 60 mg/mL, after heating at 80° C.",Y
same,Dissolution After Heating,"3% (w/v)Glycerol Monostearate, 48.5% (v/v) PEG 400, 48.5% (v/v) Tween ® 20, M4N 60 mg/mL, heating at 80° C.",Y at 80 °C
same,Dissolution After Rotation,"5% (v/v) Peppermint Oil, 47.5% (v/v) Tween ® 20, 47.5% (v/v) PEG 400, M4N 60 mg/mL",N
same,Dissolution After Cool Down,"5% (v/v) Peppermint Oil, 47.5% (v/v) Tween ® 20, 47.5% (v/v) PEG 400, M4N 60 mg/mL, after heating at 80° C.",Y
same,Dissolution After Heating,"5% (v/v) Peppermint Oil, 47.5% (v/v) Tween ® 20, 47.5% (v/v) PEG 400, M4N 60 mg/mL, heating at 80° C.",Y at 80 °C
same,Dissolution After Rotation,"10% TPGS (w/v), 50% PEG 400 (v/v), M4N 50 mg/ml",suspension
same,Dissolution After Rotation,"25% (v/v) PEG 400, 25% (v/v) Tween ® 20, 50% (v/v) Glycerol Monooleate, M4N 60 mg/mL",N
same,Dissolution After Heating,"25% (v/v) PEG 400, 25% (v/v) Tween ® 20, 50% (v/v) Glycerol Monooleate, M4N 60 mg/mL, heating at 50° C.",Y at 50 °C
same,Dissolution After Rotation,"25%(w/v) Lecithin, 37.5% (v/v) PEG 400, 37.5% (v/v) Tween ® 20, M4N 60 mg/mL",N
same,Dissolution After Cool Down,"25%(w/v) Lecithin, 37.5% (v/v) PEG 400, 37.5% (v/v) Tween ® 20, M4N 60 mg/mL, after heating at 50° C.",Y
same,Dissolution After Heating,"25%(w/v) Lecithin, 37.5% (v/v) PEG 400, 37.5% (v/v) Tween ® 20, M4N 60 mg/mL, heating at 50° C.",Y at 50 °C
same,Dissolution After Rotation,"30% (v/v) PEG 400, 30% (v/v) Tween ® 20, 40% (v/v) Glycerol Monooleate, M4N 60 mg/mL",N
same,Dissolution After Heating,"30% (v/v) PEG 400, 30% (v/v) Tween ® 20, 40% (v/v) Glycerol Monooleate, M4N 60 mg/mL, heating at 50° C.",Y at 50 °C
same,Dissolution After Heating,"40% Propylene Glycol (w/v), 10% Ethanol (v/v), M4N 10 mg/mL",N
